Test results reported in article PMC8639719.
Results are given in words; binding and its absence hold for the method and conditions named. In cells and extracts the contact can be indirect. Some results given as binding are weak or reduced against the parent protein; the word gives no strength.

Protein sequences, listed by entry. Tags and fused reporters are not part of them.
UniProt F1M649: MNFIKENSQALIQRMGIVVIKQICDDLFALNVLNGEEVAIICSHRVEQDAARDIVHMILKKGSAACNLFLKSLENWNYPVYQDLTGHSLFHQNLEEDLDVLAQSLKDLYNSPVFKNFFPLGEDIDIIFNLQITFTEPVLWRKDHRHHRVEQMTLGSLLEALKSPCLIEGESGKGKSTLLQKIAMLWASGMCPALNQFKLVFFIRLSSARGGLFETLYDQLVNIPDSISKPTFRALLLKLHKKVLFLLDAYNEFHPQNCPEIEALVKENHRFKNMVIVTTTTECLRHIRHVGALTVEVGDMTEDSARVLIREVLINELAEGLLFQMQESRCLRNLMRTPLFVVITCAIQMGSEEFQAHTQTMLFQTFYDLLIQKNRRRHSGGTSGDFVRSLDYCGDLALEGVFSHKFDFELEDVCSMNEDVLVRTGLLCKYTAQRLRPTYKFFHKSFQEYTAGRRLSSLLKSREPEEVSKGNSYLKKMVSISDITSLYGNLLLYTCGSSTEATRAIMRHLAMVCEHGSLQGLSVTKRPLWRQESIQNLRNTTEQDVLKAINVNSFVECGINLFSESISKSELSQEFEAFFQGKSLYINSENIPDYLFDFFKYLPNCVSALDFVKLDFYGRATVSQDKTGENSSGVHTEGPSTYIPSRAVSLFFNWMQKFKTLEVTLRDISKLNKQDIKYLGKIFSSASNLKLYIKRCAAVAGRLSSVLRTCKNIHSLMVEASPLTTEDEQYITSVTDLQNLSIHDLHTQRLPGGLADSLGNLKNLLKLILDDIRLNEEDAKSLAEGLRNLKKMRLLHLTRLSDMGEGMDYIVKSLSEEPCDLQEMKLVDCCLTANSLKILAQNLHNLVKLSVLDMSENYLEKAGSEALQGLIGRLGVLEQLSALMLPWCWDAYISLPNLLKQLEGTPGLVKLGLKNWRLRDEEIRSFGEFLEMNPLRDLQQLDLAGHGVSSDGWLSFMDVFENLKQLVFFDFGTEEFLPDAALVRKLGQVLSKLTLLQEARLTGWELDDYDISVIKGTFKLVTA

Target: NLRC4 (rat (endogenous in Sprague-Dawley rat brain)) (UniProt F1M649)
Experiment: co-IP; antibody on magnetic beads incubated with rat brain tissue sample (peri-hematoma area, 72 h after ICH), Western blot of the precipitate; groups: sham, ICH, ICH + GNE7915, ICH + vehicle, ICH + shRGS2, ICH + NC

B1: pro-caspase-1 (protein, UniProt P43527 1-402)
chain: MADKVLRAKRKQFINSVSVGTINGLLDELLEKRVLNQEEMDTIKLANITVMEKARDLCDHVTKKGPRASQMFITYICNEDCYLAEILELQSGPSAETVFVTEDSKGGHPFSSETKEKLNKEGGAFPGPSGSLKFCPLEIAQKLWKENHSEIYPIMKTPTRTRLALIICNTDFQHLSRRVGADVDLREMKLLLQDLGYTVKVKENLTALEMTKELKEFAACPEHKTSDSTFLVFMSHGLQEGICGITYSNEVADILKVDTIFQMMNTLKCPSLKDKPKVIIIQACRGEKQGVVLLKDSVGNSEEGFLTDAIFEDDGIKKAHIEKDFIAFCSSTPDNVSWRHPVRGSLFIESLIKHMKEYAWSCDLEDIFRKVRFSFEQPDSRLQMPTTERVTLTKRFYLFPGH
  binding: binds
